Source: PubChem BioAssay AID504444 (National Center for Advancing Translational Sciences (NCATS), 2011)
The campaign covered roughly 360,000 compounds. About 7,500 (2.1%) were called active. The shares of active, inactive and inconclusive entries below differ from those in the screen. Calls follow the shape of the dose curve; as a rule, active = well fitted inhibition curve with a large enough effect; inconclusive = small, poorly fitted or top-dose-only effect, or effect the other way; inactive = flat fitted curve, though single readings scatter. A potency beside an inconclusive call is a rough fit, not a confirmed value.

Assay: Nrf2 qHTS screen for inhibitors; also: nearly all actives have a fitted effect of over 60% in size
Conditions: A549 ARE-Fluc reporter, luciferase luminescence, 18-24 h; activity change, negative = inhibition: at 46 µM (top of the series)
Procedure, shortened: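 Nrf2 activity is the BugLite luminescence, read 15 min after reagent at room temperature, following CellTiter-Fluor cytotoxicity readout (30 min, 37C). Compound titrations were applied for 18-24 h to 5000 A549 ARE_Fluc cells/well in 5% FBS OPTI-MEM.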
% is scaled to controls: 0 for no effect and ±100 for the full control effect; potency is read from the fitted curve at half-maximal effect.

Structure (SMILES)	Potency	activity change, negative = inhibition
COc1ccc(C(O)(c2ccccc2)C(C(=O)O)c2ccccc2)cc1 (centres undefined)	inconclusive: 3.26 µM [activator, partial curve]	
Oc1ccc(Cl)cc1-c1cc(-c2cccc(Br)c2)n[nH]1	inconclusive: 4.61 µM [activator, single point]	
CCS(=O)(=O)CCSC(=N)N	inconclusive: 29.1 µM [activator, single point]	
Oc1ccc(Br)cc1C=Nc1cccn2cc(-c3ccccc3)nc12		inactive: -6.2%
CC1CC=CC2C1C(=O)N(Cc1ccccc1)C2c1ccc(-c2ccc(N(C)C)cc2)cc1F (centres undefined)	inconclusive: 23.1 µM [falling, partial curve, poor fit]	
COc1ccc(C2CC(=O)c3cc(-c4nc(-c5cccc([N+](=O)[O-])c5)cs4)c(=O)n(-c4ccccc4N)c3C2)cc1 (centres undefined)	inconclusive: 10.3 µM [falling, partial curve, poor fit]	
Clc1ccc(C(Cn2ccnc2)OCc2c(Cl)cccc2Cl)c(Cl)c1 (centres undefined)		inactive: -23.8%
CCN(c1ccc(OC)cc1)S(=O)(=O)c1ccc2[nH]c3c(c2c1)CCCCC3	inconclusive: 29.1 µM [falling, single point]	
Cc1cccc2c1-c1sc(C(=O)NCCCN3CCc4ccccc4C3)cc1CO2	inconclusive: 18.4 µM [falling, partial curve, poor fit]	
Cn1c(CCc2ccccc2)n[nH]c1=S	inconclusive: 20.6 µM [falling, single point]	
Cn1c(N)c(C#N)c2c(c1=S)CSC(C)(C)C2	inconclusive: 18.4 µM [falling, partial curve, poor fit]	
O=C(Nc1ccc(Oc2ccc3c(c2)C(=O)N(c2ccc(O)cc2)C3=O)cc1)c1cccs1	inconclusive: 14.6 µM [falling, partial curve, poor fit]	
Cc1ccc(S(=O)(=O)CCC(=O)N(CCN2CCOCC2)c2nc3ccccc3s2)cc1	inconclusive: 8.2 µM [activator, partial curve]	
O=C(O)c1ccc(-c2noc(-c3cccc(C(F)(F)F)c3)n2)cc1		inactive: -25%
CC(=O)Nc1ccc(NC(=O)/C=C/c2ccccc2)cc1	inconclusive: 7.31 µM [activator, partial curve]	
CCCCNc1ccccc1C(=O)OCC(=O)Nc1ccc(S(N)(=O)=O)cc1	inconclusive: 32.6 µM [falling, single point]	
O=C1CCCc2oc3c(cc(NS(=O)(=O)c4ccc5c6c(cccc46)C(=O)N5)c4ccccc43)c21	inconclusive: 32.6 µM [falling, single point]	
CC(=O)COc1ccc2c(-c3cccc([N+](=O)[O-])c3)cc(=O)oc2c1	inconclusive: 29.1 µM [falling, single point]	
Cc1cc2c(s1)c1cnn(Cc3ccccc3F)c(=O)c1n2C(C)C	inconclusive: 25.9 µM [falling, partial curve, poor fit]	
CCc1ccc(CNC(=O)C2CCN(c3nn4cc(-c5ccc(OC)cc5)nc4s3)CC2)cc1	inconclusive: 16.4 µM [activator, partial curve]	
COc1cccc(N2CC(NS(=O)(=O)c3cccnc3)CC2=O)c1 (centres undefined)		inactive: 2.31%
CCOc1ccccc1NC(=O)c1nnn(CC(=O)Nc2ccc3c(c2)OCO3)c1N		inactive: -8.12%

Structure (SMILES)	Potency	activity change, negative = inhibition
Cc1ccc(NC(=O)COc2cccc(C)c2C)cc1S(=O)(=O)N1CCCCCC1	active: 25.9 µM	
CC(NC(=O)C12CC3CC(CC(C3)C1)C2)C(=O)N/N=C/C1=C(N2CCOCC2)C(=C\c2ccccc2)/CC1 (centres undefined)	inconclusive: 5.17 µM [falling, full curve, poor fit]	
CCCCNC(=S)Nc1ccc(C(F)(F)F)cc1	inconclusive: 29.1 µM [falling, single point]	
Cc1ccc(-n2c(C)cc(C(=O)CSc3nnnn3C)c2C)cc1	inconclusive: 0.291 µM [activator, full curve, poor fit]	
C[C@H]1C=CC(=O)C[C@H]1c1c(F)cccc1Cl		inactive: -10.3%
Cc1ccc(NC(=O)c2ccc(S(=O)(=O)NCc3cccnc3)cc2)cc1C	inconclusive: 23.1 µM [falling, single point]	
O=C(COC(=O)Cc1cccc(C(F)(F)F)c1)NCc1ccco1		inactive: 3.15%
O=C(/C=C/c1ccccc1[N+](=O)[O-])Nc1cccnc1		inactive: 25.3%
O=S(=O)([N-]c1nc2ccccc2nc1-n1cc[n+](Cc2ccccc2)c1)c1ccc(Cl)cc1	inconclusive: 3.26 µM [activator, partial curve, poor fit]	
CCn1c(CN2CCN(C)CC2)nc2cc(NC(=O)c3ccc([N+](=O)[O-])cc3)ccc21		inactive: 4.32%
Cc1ccc(S(=O)(=O)CCC(=O)Nc2nc(-c3ccccn3)cs2)cc1	active: 20.6 µM	
CCCCCCSc1ccc([C@@H]2[C@@H]3C(=O)N(C)C(=O)[C@@H]3[C@]3(C(=O)OC)CCCCN23)cc1OC	inconclusive: 20.6 µM [falling, single point]	
Cc1ccc(-n2c(CSc3nc(C)cc(C)n3)nnc2SCC(=O)Nc2nccs2)cc1	inconclusive: 5.8 µM [activator, single point]	
Cc1ccc(-n2nc3c(=O)n(CCCC(=O)NCc4ccc(Cl)cc4)nc(C)c3c2C)cc1	inconclusive: 32.6 µM [activator, single point]	
COc1ccc2nc(NC(=O)CSc3nc4cccnc4n3C)sc2c1	inconclusive: 8.2 µM [falling, partial curve]	
Cc1ccc(C(=O)C(C)OC(=O)c2ccccc2[N+](=O)[O-])cc1 (centres undefined)	inconclusive: 3.66 µM [activator, full curve]	
COc1ccc(OCC(=O)Nc2ccc(N3CCN(C(=O)c4ccco4)CC3)cc2)cc1	inconclusive: 13 µM [falling, partial curve]	
COc1ccc(OC)c(NC(=O)c2nc(S(=O)(=O)Cc3ccc(F)cc3)ncc2Cl)c1	inconclusive: 29.1 µM [falling, single point]	
CC(C)CN1C(=O)c2ccc(NC(=O)c3cccs3)cc2C1=O	inconclusive: 32.6 µM [falling, single point]	
CCOC(=O)c1nn(-c2ccccc2)c(C#N)c1N	inconclusive: 32.6 µM [activator, partial curve, poor fit]	
CCOCCCN(Cc1ccco1)C(=O)c1cc2c(s1)-c1c(C)cccc1OC2	inconclusive: 9.2 µM [falling, partial curve, poor fit]	
COc1ccc(C(=O)c2cn(CC(=O)Nc3cc(C)ccc3C)c3nc(C)ccc3c2=O)cc1	inconclusive: 7.31 µM [activator, partial curve]	

Part of the list above in order of formula weight, high to low:
Structure (SMILES)	Potency	activity change, negative = inhibition
COc1ccc(OC)c(NC(=O)c2nc(S(=O)(=O)Cc3ccc(F)cc3)ncc2Cl)c1	inconclusive: 29.1 µM [falling, single point]	
COc1ccc2nc(NC(=O)CSc3nc4cccnc4n3C)sc2c1	inconclusive: 8.2 µM [falling, partial curve]	
CCCCNC(=S)Nc1ccc(C(F)(F)F)cc1	inconclusive: 29.1 µM [falling, single point]	

Next records.

Structure (SMILES)	Potency	activity change, negative = inhibition
Cc1cccc2nc(-c3ccccn3)c(Nc3ccccc3)n12	active: 10.3 µM	
COc1ccc(/C=N/NC(=O)c2cccc(Br)c2)cc1Cn1cc(Cl)cn1	inconclusive: 16.4 µM [falling, single point]	
CC1=C(C#N)C(c2ccccc2)C2=C(N1)c1ccccc1C2=O (centres undefined)	active: 23.1 µM	
Cn1c(=O)c2c(nc(N/N=C/c3cccs3)n2Cc2ccccc2)n(C)c1=O	inconclusive: 18.4 µM [falling, single point]	
c1ccc(SCc2nc(-c3cccnc3)no2)cc1	inconclusive: 9.2 µM [activator, partial curve]	
CCc1nnc(SCc2ccc(OC(C)C)cc2)n1N	inconclusive: 29.1 µM [activator, single point]	
CCN(CCn1cccn1)C(=O)c1cc(COc2ccccc2SC)on1	inconclusive: 10.3 µM [activator, partial curve]	
CCCCOC(=O)c1ccc(-n2nnc3c(sc4nc(C)cc(C)c43)c2=O)cc1	inconclusive: 4.11 µM [activator, partial curve]	
CC[C@@H]1CC=C[C@H]2[C@H]1C(=O)N(Cc1ccccc1)[C@H]2c1ccoc1		inactive: -14.2%
CC(C#N)Sc1ncnc2sc3c(c12)CCC3 (centres undefined)	inconclusive: 9.2 µM [falling, partial curve, poor fit]	
Cc1nc(NC(=O)COC(=O)CNC(=O)c2ccco2)c(Cl)cc1Cl		inactive: 10.4%
CN(C)C(=O)CCc1ccc2c3c([nH]c2c1)[C@]1(CCC2CCCC2)[C@@H](C(=O)N2CCOCC2)C[C@H](CC(=O)NCC24CC5CC(CC(C5)C2)C4)C(=O)N1CC3	inconclusive: 25.9 µM [falling, single point]	
O=C(COC(=O)c1ccccn1)Nc1ccc2c(c1)OCCO2	inconclusive: 25.9 µM [activator, partial curve, poor fit]	
Cc1cn(CCC(=O)Nc2ccccc2N2CCOCC2)c2ccccc12	inconclusive: 9.2 µM [activator, partial curve]	
CCOc1cccc(NCc2cc3c(C(C)(C)C)nn(-c4ccccc4)c3[nH]c2=O)c1	active: 20.6 µM	
O=C(Nc1ccc(S(=O)(=O)N2CCOCC2)cc1)c1nn(-c2ccc(F)cc2)ccc1=O	inconclusive: 10.3 µM [falling, partial curve]	
Cc1ccc(NC(=O)CN(Cc2ccccc2)S(=O)(=O)c2ccc3nc(C)sc3c2)c(C)c1		inactive: 17.4%
O=C(NCCc1ccc(C(F)(F)F)cc1)C1CC(=O)N(Cc2ccccc2)C1 (centres undefined)	inconclusive: 13 µM [activator, partial curve, poor fit]	
COc1cc(/C=C(\C#N)c2nnc(N3CCOCC3)n2-c2ccccc2)ccc1O	inconclusive: 23.1 µM [falling, single point]	
O=C(Nc1ccc(S(=O)(=O)N2CCOCC2)cc1)c1ccc2c(c1)S(=O)(=O)c1ccccc1C2=O		inactive: -9.66%

Entries of single compounds, quoted from the list:
O=C(Nc1ccc(S(=O)(=O)N2CCOCC2)cc1)c1ccc2c(c1)S(=O)(=O)c1ccccc1C2=O as listed: activity change, negative = inhibition: inactive: -9.66%
O=C(COC(=O)c1ccccn1)Nc1ccc2c(c1)OCCO2 as listed: Potency: inconclusive: 25.9 µM [activator, partial curve, poor fit]
